Results as given in PubChem BioAssay AID1347423 (Functional Genomics Laboratory (NCATS/FGL), 2020).
Among all 52,000 sequences or so, about 210 (0.4%) were called active.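 Rule for the calls: active = gene whose silencing raises cell survival under the drug, median off-target-corrected z-score across its silencing RNAs 2 or more; inactive = the rest.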 The list shows a part of the results.

experiment: Resistance to Poly (ADP-Ribose) Polymerase inhibitor: Gene Identification via Genome-wide siRNA Screen; conditions: mouse BRCA2 R2336H ES cells, olaparib, CellTiter-Glo viability; hits give high values
How it was run: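 Genome-wide siRNA screen (3 siRNAs/gene, 20 nM) in mouse ES cells carrying hypomorphic BRCA2 R2336H; olaparib 500 nM added 48 h post-transfection, CellTiter-Glo viability 72 h later. Normalized to plate-median negative control; MAD z-scores, gene median, seed-adjusted.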

Sequence	z-score
CCUGACUCGUCUCAAUAAATT against 4930562D19Rik	inactive: -0.888
GCUCAAAAGAAGUGAGCCUTT against 4631405J19Rik	inactive: -1.08
GUUACAGUAUUCUAUGGGATT against Olfr1080	inactive: 0.947
GGUGGAAGAUUAGUGACUUTT against Trim38	inactive: -0.545
CCCUAUACCUGAAGCAUUATT against Gabrr2	inactive: -1.26
GCUUGAUUUGACCACGCUGTT against 5330410G16Rik	inactive: 2.36
CGAAGAGUCCAUCAUUGCGTT against Dcpp	inactive: -0.898
GGCAUCUUCGAAAAAUGAUTT against Reck	inactive: -0.0385
GGGAUAAAACAGGUUCAAGTT against 4933424N09Rik	inactive: 0.727
GGAUAAGGAUGCUAAAUUCTT against Rps13	inactive: -3.12
GGGAAGUUAUAAUGGAAGUTT against Rps15a	inactive: -0.0112
GCAUCAGAUGGCUAUUUGUTT against 2510001I10Rik	inactive: -0.0394
CGUAUCAACAUCUCAGAAGTT against Pcbp2	inactive: 0.263
GCUAAAGAAGGUAACUCAGTT against Zfyve28	inactive: -0.0366
GGAUAAUGGAGCAAAUUGCTT against Slc22a1	inactive: 0.0691
UGAUAAGUAGUCCCUCCUUTT against 7420402K12Rik	inactive: -0.676
GCGCAAUUAAAGAAGAACATT against Tcerg1	inactive: 0.333
GGAACUACAACAGAAACGATT against Azi1	inactive: -1.11
CCUAUACCAGAUUUACAGGTT against Mtx1	inactive: 0.0749
GGCAGAAAGUAAAUCCGUGTT against 1200009I06Rik	inactive: -0.871
GGCAACGGUUGAAUAAACATT against Mrgpra3	inactive: 0.186
GCAAAUUGGUCAUCGACUGTT against Alg1	inactive: 0.915
GGACAUUCUCUACCGAAUATT against Bucs1	inactive: -0.639
GCUCUCACAGGAUAAGGCUTT against Cryga	inactive: 0.229
GGUCAACUAAGUUAAAUGGTT against Pnma2	inactive: 1.67
GGCCCAAGAGCAUUCUGGATT against Slc25a19	inactive: -0.238

Sequence	z-score
CCCUCGAAAAGACAGUGAGTT against Tbx1	inactive: 0.284
GGCCACUUUUCACCACAAATT against 1700006H02Rik	inactive: -0.00624
GGAGGAGCAACCCAUGUCUTT against ICRFP703B1614Q5.6	inactive: -0.195
GGACAGCUACAAGAGGAGATT against Fbxl4	inactive: -0.46
GGCUAUGUUACCAGAAAGCTT against 2310010G13Rik	inactive: 2
GGGCCACCCAAAAUAACUCTT against Mtl5	inactive: 0.37
CCCACACAAUUCUCAUGGGTT against Olfr366	inactive: 1.7
GGGAAUCAACGCAAAGUUGTT against Pcdhga5	inactive: 0.429
GGUAUCAGACAGCUGUAACTT against 1810030J14Rik	inactive: -0.138
GCUAAUGAUACAGAAGUUGTT against Snrpb2	inactive: 0.0437
GGAGGAACAGAGAGUUUGGTT against Kifc2	inactive: 1.08
GCAAUUGAGAUCUAUACAGTT against Napa	inactive: 0.715
AACAGGAAUCUUCUGUAGUTT against 2210019E14Rik	inactive: -0.227
GUUCUUACACCCAUCUUGATT against Olfr1414	inactive: 2.56
GGACACCAUGGAAGACUCUTT against Krtap16-8	inactive: 0.454
GGCAAGGAUGAUGUCUUCGTT against Upk1a	inactive: -1.87
CCAGGAUUGGACUGAUAGUTT against 0610010D20Rik	inactive: -0.154
GGAAAACACACUUUUCUUUTT against 9030625G08Rik	inactive: -0.0193
GCCUAACGGAGAGGUAUUUTT against Gal3st1	inactive: -0.0688
GCAUAGAUGAAGCAAUACUTT against Ugp2	inactive: -0.234
GGCAUUGCAUGUGCACGAUTT against Ror1	inactive: -0.0564
GCAAUAACCCAAUUCCUGATT against Phex	inactive: -0.693
GGCAACAAAUCAAAGCAGCTT against Anxa7	inactive: 0.066
GCCAAGGUUAUCAUGAAUGTT against F13a	inactive: 0.684
GGCAGGAGCAAAACAUUUUTT against Olfr1111	inactive: -0.768
GGUCCUCAGCAGUCAUCAUTT against Sprr2h	inactive: -1.34

Reprinted from above (5 entries):
Sequence	z-score
GGUAUCAGACAGCUGUAACTT against 1810030J14Rik	inactive: -0.138
GCUAAUGAUACAGAAGUUGTT against Snrpb2	inactive: 0.0437
GGAGGAACAGAGAGUUUGGTT against Kifc2	inactive: 1.08
GCAAUUGAGAUCUAUACAGTT against Napa	inactive: 0.715
AACAGGAAUCUUCUGUAGUTT against 2210019E14Rik	inactive: -0.227

Continued:

Sequence	z-score
GGUCGAAAGAAUAAUUUGUTT against Cct6a	inactive: -2.15
GGAACUAACAGCCCUACUATT against Sprn	inactive: -1.33
GCUAAGCUUGUCUAAAAUCTT against Ttk	inactive: 0.0426
CCCAAAGCGUGACUGUCAATT against Sema4b	inactive: 0.671
CACGACCUAGGUGUGACCATT against Arrdc2	inactive: -1.58
GCGAGAAGCUUUAGAACGATT against D19Ertd721e	inactive: 0.59
GGUCAAUGGAGUAGAUUUATT against Pard3	inactive: 0.681
GCCAAGUAGUAUGUUUCUUTT against Sprn	inactive: 0.747
GGAAUACUGGUCUUGCUGUTT against Fbxo23	inactive: 0.738
GGAGCGAGAUACUCCUAAATT against Epha6	inactive: 0.585
GCAUAAGAAGCAACGUGUGTT against Strn4	inactive: 3.02
CCCUUCCUUUUACCAACAATT against Tmod4	inactive: 1.51
CCAUGACUACCUGCCUCUGTT against LOC328644	inactive: 0.768
GGAAAUAGAAGAAAAACUCTT against 9430010O03Rik	inactive: 0.871
GCCUCAGCAUUACCACUAUTT against Pof1b	inactive: 2.18
CCCAAAGUUACAACACUGUTT against LOC380907	inactive: -0.606
GGAUUUAGGCUAGACCGGGTT against BB220380	inactive: 0.294
GCUAGCAAGUGAGAUGGAGTT against Mbd3l1	inactive: -1.17
GGUUGACAUCGACCAAUCATT against Klhl1	active: 1.3
GCAACAACCACCAAAUCUATT against Muc10	inactive: -1.45
CCUGUGCUCUGAGUUUGGCTT against 1700111I05Rik	inactive: -1.94
GCCUACAAGCCAUGAACAATT against Mybbp1a	inactive: -1.84
GGCAAGCUUACAAAAUGGATT against Pgbd5	inactive: 0.572
CGGUAUCAACAUUCUGGCUTT against Clm6	inactive: 0.767
GCAGACAAAGAUCCUAUGCTT against Atp2b3	inactive: -1.83
CCCACAGCUCUGACAUUUUTT against Fbxo6b	inactive: -0.82

Sequence	z-score
GGCUGAAGCAGUCUGUUGCTT against Rpp14	inactive: -0.655
CCCUCAAUCUAACAGUGCATT against Dsg1b	inactive: -0.599
GGAGAGGAAGAUUUUCUCCTT against 1700019P01Rik	inactive: 2.18
UAACCAAGAGGGUAAAAAUTT against ADAM26b	inactive: 0.782
GGAAAAUCUAUAGGUAGAGTT against B230104P22Rik	inactive: 1.51
CCAAGUGGUACUAAUAAAUTT against Ptpn4	inactive: 0.327
GCUGAUUUUAACAAUACCUTT against Fos	inactive: 1.16
GCGGGUGUACUUAUGGUGATT against Glul	inactive: -0.00283
GGUAUGGCGUAAACCAGCUTT against Alad	inactive: 0.941
GCUAGAUCCCGUGCUUAAGTT against Bpy2ip1	inactive: 2.09
GGGCCACACAGAAAUGGUUTT against Ank1	inactive: 0.219
GCCAAUAAAUCUCUUCCAATT against 0610006I08Rik	inactive: 0.682
CGGGAUCCAGCCUCUAAGUTT against Palm	inactive: 0.0555
GGACUUUGCUAAAUCCUGUTT against Edg5	inactive: 0.772
GCUCUGGACUUCGGUAGAUTT against Adrb1	inactive: 1.32
GGGUUUUCUUGUGUGAAAATT against 2510048O06Rik	inactive: -3.5
GAUUAAUAGUGGUUUCUGATT against Olfr1219	inactive: -0.34
CCAUGUACCAGAUUAAGUATT against Krt2-8	inactive: -0.275
GCCUUCUGAUAACCUACUATT against Mefv	inactive: -0.353
CGUCACUGGUGGUAUCAACTT against MGI:3576664	inactive: 0.0983
GCCUGGAUUUAAUUUAUGGTT against Sv2a	inactive: 1.55
GGGACUGUCCUUUUUGAAATT against Unc119	inactive: 0.266
GGUGGAUUUGAACCCAAAATT against 1810055D05Rik	inactive: 1.04
GGAAGUCAGUGAAAAAAUUTT against Csng	inactive: -0.182
GUAAGCAGCAACAGAGGCUTT against Tnfsf7	inactive: -2.15
GGGAUGGAAGACGUACAGATT against Alox12e	inactive: -0.347
